The subject of this data set is MITF gene. In words: MITF gene activity by real-time PCR. The data set is classed as cell-based, mice. The following applies: Table 2; three replicates; C2-P4 10 μM, α-MSH 50 nM, 48 hours. The method, then: B16-F10 cells purchased from the Korean Cell Line Bank were inoculated into 3 mL of a DMEM medium containing 10% FBS at a concentration of 1×10^5 cells/well in a 6-well plate and cultured in an incubator of 37° C. and 5% CO2 for 24 hours to form a cell monolayer. The medium in a negative control was replaced with a DMEM medium, and the medium in peptide-treated experimental groups and α-MSH experimental groups was replaced with a medium containing 10 μM of each of the peptides and 50 nM of α-MSH, respectively, and then the cells were cultured for 48 hours. Each of the experimental groups was washed twice with PBS, the cells were obtained with trypsin-EDTA and centrifuged at 1500 rpm for 5 minutes to separate the cells. RNA was extracted from the separated cells using Trizol, and each 1,000 ng of cDNA was synthesized using reverse transcriptase. Using 100 ng of each of the synthesized cDNAs, the expression levels of GAPDH and […] were confirmed using real-time PCR. The primers used for the real-time PCR were SEQ ID NOs: 9 and 10. Alternatively, the polynucleotide sets of SEQ ID NOs: 11 and 12 were used.
(In qPCR the cycle at which signal appears reflects the starting amount.)

Several values for one entry are separate records, joined by “and”; a condition that tells them apart may be missing. Equal entries are not always repeated.

α-MSH: the “GAPDH (real-time PCR value)” value was 23.41 and 23.36 and 23.74.

The values are drawn from patent US20250325468A1, “PEPTIDE INHIBITING FORMATION OF SNARE COMPLEX AND USE THEREOF” (MEDYTOX INC., priority 2020, published 2025).
